## Cleaved PARP in drug-treated melanoma cells

From a melanoma drug combination screen (doi:10.1371/journal.pone.0140310); values rounded.

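Human melanoma cell lines in 1,536-well plates were treated with a pair of drugs for 72 h, then fixed, stained and imaged. Values are the share of nuclei positive for cleaved PARP as a percentage of the same share in the DMSO control: 100 is the control level, higher means more apoptosis. Every drug was used at one fixed concentration, the higher of two screened. These are primary screening values without error estimates. Basal and induced levels differ widely between cell lines.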 This is part of the screen, not chosen by result.

Every entry is a combination with indole-3-carbinol at 4 µM: OCc1c[nH]c2ccccc12

| # | Second drug | SK-MEL-5 | LOX IMVI | IST-MEL1 |
|---|---|---|---|---|
| 1 | Cn1cc(C2=C(c3cn(C4CCN(Cc5ccccn5)CC4)c4ccccc34)C(=O)NC2=O)c2ccccc21 at 4 µM | 77.0 | 16.0 | 52.3 |
| 2 | N#Cc1c(O)c2c(-c3ccc(-c4ccccc4O)cc3)csc2[nH]c1=O at 10 µM | 110 | 105 | 184 |
| 3 | C=CCn1c(=O)c2cnc(Nc3ccc(N4CCN(C)CC4)cc3)nc2n1-c1cccc(C(C)(C)O)n1 at 0.1 µM | 121 | 40.3 | 81.4 |
| 4 | O=C(Nc1ccccc1)c1cc([N+](=O)[O-])ccc1Cl at 10 µM | 199 | 137 | 107 |
| 5 | COc1ccc(C2=N[C@@H](c3ccc(Cl)cc3)[C@@H](c3ccc(Cl)cc3)N2C(=O)N2CCNC(=O)C2)c(OC(C)C)c1 at 0.5 µM | 154 | 109 | 143 |
| 6 | COCC[n+]1c2c(n(Cc3cnccn3)c1C)C(=O)c1ccccc1C2=O at 0.002 µM | 250 | 146 | 115 |
| 7 | COc1ccc(COc2ccc(Cc3cnc(N)nc3N)cc2OC)cc1 at 5 µM | 138 | 72.5 | 31.7 |
| 8 | O=C(/C=C/c1cccnc1)NCCCCC1CCN(C(=O)c2ccccc2)CC1 at 0.05 µM | 76.5 | 29.8 | 59.3 |
| 9 | Nc1cccc2c1CN(C1CCC(=O)NC1=O)C2=O (stereo unspecified) at 5 µM | 46.0 | 86.0 | 62.3 |
| 10 | CO[C@H]1C[C@@H]2CC[C@@H](C)[C@@](O)(O2)C(=O)C(=O)N2CCCC[C@H]2C(=O)O[C@H]([C@H](C)C[C@@H]2CC[C@@H](OCCO)[C@H](OC)C2)CC(=O)[C@H](C)/C=C(\C)[C@@H](O)[C@@H](OC)C(=O)[C@H](C)C[C@H](C)/C=C/C=C/C=C/1C at 0.1 µM | 268 | 65.2 | 76.7 |
| 11 | Cn1c(Nc2ccc(C(F)(F)F)cc2)nc2cc(Oc3ccnc(-c4ncc(C(F)(F)F)[nH]4)c3)ccc21 at 0.4 µM | 2840 | 143 | 41.9 |
| 12 | C[C@@H]1CCN(C(=O)CC#N)C[C@@H]1N(C)c1ncnc2[nH]ccc12 at 5 µM | 186 | 37.2 | 37.1 |
| 13 | CC(C)(C)c1cnc(CSc2cnc(NC(=O)C3CCNCC3)s2)o1 at 0.05 µM | 209 | 59.6 | 174 |
| 14 | CN(NC(=O)CC(=O)NN(C)C(=S)c1ccccc1)C(=S)c1ccccc1 at 0.03 µM | 233 | 154 | 939 |
| 15 | C[C@@H](Oc1cc(-c2cnn(C3CCNCC3)c2)cnc1N)c1c(Cl)ccc(F)c1Cl at 1 µM | 157 | 107 | 42.5 |
| 16 | Cc1nc(Nc2ncc(C(=O)Nc3c(C)cccc3Cl)s2)cc(N2CCN(CCO)CC2)n1 at 0.02 µM | 306 | 1210 | 185 |
| 17 | O=C(Nc1cccc(Cl)c1)Nc1ncc(CCNc2ncnc3ccsc23)s1 at 0.004 µM | 79.8 | 195 | 222 |
| 18 | C[C@]1(c2nc3c(C(N)=O)cccc3[nH]2)CCCN1 at 7 µM | 47.9 | 75.8 | 75.5 |
| 19 | CC(=O)O[C@@]12CO[C@@H]1C[C@H](O)[C@@]1(C)C(=O)[C@H](O)C3=C(C)[C@@H](OC(=O)[C@H](O)[C@@H](NC(=O)OC(C)(C)C)c4ccccc4)C[C@@](O)([C@@H](OC(=O)c4ccccc4)[C@H]21)C3(C)C at 0.0005 µM | 681 | 227 | 396 |
| 20 | Cc1cc([N+](=O)[O-])ccc1NS(=O)(=O)c1cc(Cl)ccc1Cl at 5 µM | 56.5 | 71.5 | 114 |
| 21 | CCCCCCCCc1ccc(CCC(N)(CO)CO)cc1 at 10 µM | 4550 | 2100 | 989 |
| 22 | Cn1cncc1[C@@](N)(c1ccc(Cl)cc1)c1ccc2c(c1)c(-c1cccc(Cl)c1)cc(=O)n2C at 0.05 µM | 244 | 67.1 | 24.9 |
| 23 | O=C(O)C(=O)Nc1sc2c(c1C(=O)O)CCNC2 at 8.33 µM | 382 | 180 | 50.3 |
| 24 | CC1(C)NC(=O)N(c2ccc([N+](=O)[O-])c(C(F)(F)F)c2)C1=O at 5 µM | 45.7 | 107 | 48.0 |
| 25 | COc1ccc(-c2ccc3c(N4CCOCC4)nc(N4C[C@@H](C)O[C@@H](C)C4)nc3n2)cc1CO at 0.1 µM | 246 | 144 | 31.9 |
| 26 | Cc1ccc(Nc2nccc(N(C)c3ccc4c(C)n(C)nc4c3)n2)cc1S(N)(=O)=O at 2 µM | 115 | 49.9 | 113 |

For reference, 3 entries once more:

{"second drug": "Nc1cccc2c1CN(C1CCC(=O)NC1=O)C2=O (stereo unspecified) at 5 µM", "SK-MEL-5": 46.0, "LOX IMVI": 86.0, "IST-MEL1": 62.3}
{"second drug": "C=CCn1c(=O)c2cnc(Nc3ccc(N4CCN(C)CC4)cc3)nc2n1-c1cccc(C(C)(C)O)n1 at 0.1 µM", "SK-MEL-5": 121, "LOX IMVI": 40.3, "IST-MEL1": 81.4}
{"second drug": "Cn1cncc1[C@@](N)(c1ccc(Cl)cc1)c1ccc2c(c1)c(-c1cccc(Cl)c1)cc(=O)n2C at 0.05 µM", "SK-MEL-5": 244, "LOX IMVI": 67.1, "IST-MEL1": 24.9}